PubChem BioAssay AID652259 – Drosophila RNAi Screening Center – 2013
In all, the deposit lists about 22,000 reagents; below is a random part of those with a known target gene and a result. Over the whole deposit, 233 (1.1%) are marked active. 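Light values are raw, unnormalised plate reads; the ratio scores behind the reporter calls were not deposited.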 Names joined by + are all predicted targets of the reagent. Not given: the amount of reagent, the time to read-out, the dose of the treatment.

Screen: 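Knock-downs that push a Wingless-driven reporter up or down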 (primary screen)
Cells: Drosophila clone 8 imaginal disc epithelial cells
Reagent: long dsRNA against Drosophila genes
Conditions: pathway stimulated by co-transfected Wingless expression plasmid
Measured: 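Dual luciferase reads per well after Wingless plasmid stimulation: reporter firefly light and Renilla control light; activity is firefly divided by Renilla, a ratio not deposited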
Scale: firefly reporter light: higher = more Wg reporter light, before normalisation; Renilla control light: higher = more transfected or surviving cells
Call rule: 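a knock-down is a candidate when at least two out of four statistical tests show it departing from its plate mean; one test alone signals a weak candidate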
Meaning of the calls: active = candidate regulator (raises or lowers reporter); inactive = not a candidate

After knock-down of CG12395 [DRSC19453], the screen gave firefly reporter light, replicate 1 = 24596; Renilla control light, replicate 1 = 9553; inactive.
Against CG9449 [DRSC11073], the values are firefly reporter light, replicate 1 = 11352; Renilla control light, replicate 1 = 2674; inactive.
Sms [DRSC10408] scored firefly reporter light, replicate 1 = 5895; Renilla control light, replicate 1 = 2224; inactive.
Silencing of car [DRSC20316] resulted in: firefly reporter light, replicate 1 = 4614; firefly reporter light, replicate 2 = 9760; Renilla control light, replicate 1 = 1340; Renilla control light, replicate 2 = 1728; inactive.
After knock-down of CG11911 [DRSC00331], the screen gave firefly reporter light, replicate 1 = 6141; Renilla control light, replicate 1 = 3033; inactive.
sas [DRSC12631] scored firefly reporter light, replicate 1 = 9696; Renilla control light, replicate 1 = 2512; inactive.
Depletion of CG32278 + CG14963 [DRSC22203] came out at: firefly reporter light, replicate 1 = 7.35e5; firefly reporter light, replicate 2 = 7.12e5; Renilla control light, replicate 1 = 3.28e5; Renilla control light, replicate 2 = 3.30e5; inactive.
Against CG18343 [DRSC06726] the deposit lists firefly reporter light, replicate 1 = 8613; Renilla control light, replicate 1 = 3272; inactive.
CG17249 [DRSC08517] showed firefly reporter light, replicate 1 = 14309; Renilla control light, replicate 1 = 3735; inactive.
CG12116 [DRSC17812] showed firefly reporter light, replicate 1 = 18074; Renilla control light, replicate 1 = 10000; inactive.
After knock-down of CG2747 [DRSC15450], the screen gave firefly reporter light, replicate 1 = 14004; Renilla control light, replicate 1 = 3680; inactive.
Silencing of crb [DRSC16927] gave: firefly reporter light, replicate 1 = 1366; firefly reporter light, replicate 2 = 4001; Renilla control light, replicate 1 = 789; Renilla control light, replicate 2 = 1383; inactive.

Not a retest: 2 of the entries above.
CG11911 [DRSC00331]: firefly reporter light, replicate 1 = 6141; Renilla control light, replicate 1 = 3033; Call = inactive
sas [DRSC12631]: firefly reporter light, replicate 1 = 9696; Renilla control light, replicate 1 = 2512; Call = inactive

The list goes on.
After knock-down of SdhBL [DRSC20039] the results were firefly reporter light, replicate 1 = 13312; Renilla control light, replicate 1 = 8187; inactive.
Knock-down of CG7646 [DRSC11232] gave: firefly reporter light, replicate 1 = 22212; Renilla control light, replicate 1 = 3978; inactive.
After knock-down of CG33523 [DRSC09814] the results were firefly reporter light, replicate 1 = 1591; firefly reporter light, replicate 2 = 6007; Renilla control light, replicate 1 = 1671; Renilla control light, replicate 2 = 3049; inactive.
CG33523 [DRSC22155] scored firefly reporter light, replicate 1 = 7.00e5; firefly reporter light, replicate 2 = 8.13e5; Renilla control light, replicate 1 = 2.88e5; Renilla control light, replicate 2 = 3.28e5; inactive.
With knock-down of CG15570 [DRSC18058], the record shows firefly reporter light, replicate 1 = 20807; Renilla control light, replicate 1 = 8977; inactive.
After knock-down of Ranbp21 [DRSC19447], the screen gave firefly reporter light, replicate 1 = 1922; firefly reporter light, replicate 2 = 8177; Renilla control light, replicate 1 = 788; Renilla control light, replicate 2 = 2007; inactive.
shakB [DRSC20420] showed firefly reporter light, replicate 1 = 5520; Renilla control light, replicate 1 = 2541; inactive.
Depletion of shakB [DRSC20423] gave: firefly reporter light, replicate 1 = 3888; firefly reporter light, replicate 2 = 8.20e5; Renilla control light, replicate 1 = 2131; Renilla control light, replicate 2 = 4.02e5; inactive.
Knock-down of shakB [DRSC20492] gave: firefly reporter light, replicate 1 = 24322; Renilla control light, replicate 1 = 12711; inactive.
With knock-down of shakB [DRSC20585], the screen gave firefly reporter light, replicate 1 = 19687; Renilla control light, replicate 1 = 7483; inactive.
Silencing of shakB [DRSC21445] resulted in: firefly reporter light, replicate 1 = 3.95e5; firefly reporter light, replicate 2 = 3.87e5; Renilla control light, replicate 1 = 1.69e5; Renilla control light, replicate 2 = 1.42e5; inactive.
For shakB [DRSC22817], the entry reads firefly reporter light, replicate 1 = 4.57e5; firefly reporter light, replicate 2 = 5.55e5; Renilla control light, replicate 1 = 2.22e5; Renilla control light, replicate 2 = 2.62e5; inactive.
For CG13675 [DRSC08908], the values are firefly reporter light, replicate 1 = 6069; Renilla control light, replicate 1 = 290; inactive.
With knock-down of CG13675 [DRSC10034], the screen gave firefly reporter light, replicate 1 = 1736; firefly reporter light, replicate 2 = 5113; Renilla control light, replicate 1 = 930; Renilla control light, replicate 2 = 1051; inactive.
